According to PubChem BioAssay AID1347076 (National Center for Advancing Translational Sciences (NCATS), 2019):
Out of some 400,000 compounds screened, about 13,000 (3.2%) were called active. Inconclusive results, whose numbers are uncertain, are shown with a selection of clear calls. The call rests on the fitted dose curve; in most records, active means well fitted cell-killing curve with a large enough effect; inconclusive means small, poorly fitted or top-dose-only effect, or effect the other way; inactive means flat fitted curve, though single readings scatter. A potency beside an inconclusive call is a rough fit, not a confirmed value.

Experiment: qHTS assay for MDR1-selective chemotherapeutics: Primary screen using the drug-selected MDR subline cells KB-V1; further: nearly all actives have a fitted effect of over 60% in size
Settings: KB-V1 MDR cells viability, CellTiter-Glo, 72 h; activity change, negative = cytotoxicity: at 46.1 µM (top of the series)
Summary of the method: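 KB-V1 MDR subline cells in DMEM (phenol-red free, 10% FBS) exposed to compounds in qHTS concentration series for 72 h at 37 degrees C. Viability read by CellTiter-Glo luminescence; concentration-effect curves fitted after normalization and correction.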
On the % scale 0 is the no-effect control and ±100 the full control effect; potency means the concentration at half of the fitted maximal effect.

SMILES | Potency | activity change, negative = cytotoxicity
c1ccc(C(=NNc2nc3ccccc3s2)c2ccccn2)cc1 | inconclusive: 0.58 µM [cytotoxic, full curve, poor fit] | –
COc1cccc(C(=O)N2CCC(N3CC(C)OC(C)C3)CC2)c1 (stereo unspecified) | inconclusive: 0.461 µM [rising, full curve] | –
COc1ccc(C(=O)Nc2ccc3[nH]ncc3c2)cc1OC | – | inactive: -26.9%
COCCn1c(C)cc(C(=O)Cn2nc(C(=O)O)c3ccccc3c2=O)c1C | – | inactive: 3.02%
O=C(NCCc1ccc(Cl)cc1)c1cccn1-c1nnc(N2CCCC2)s1 | – | inactive: -28.6%
O=C1C2C3C=CC(C3)C2C(=O)N1CCN1CCN(S(=O)(=O)/C=C/c2ccccc2)CC1 (stereo unspecified) | inconclusive: 18.4 µM [cytotoxic, single point] | –
Cn1c(CNc2nc(-c3ccccc3)cs2)nnc1SCC(=O)c1ccccc1 | inconclusive: 20.6 µM [cytotoxic, partial curve, poor fit] | –
Cc1ccc(-c2[nH]ncc2/C=N/n2c(COc3ccccc3C)nc3ccccc3c2=O)cc1 | inconclusive: 8.2 µM [cytotoxic, partial curve] | –
CCOC(=O)c1ccc2ncc(C(=O)OCC)c(Nc3ccc(C)c(Br)c3)c2c1 | inconclusive: 8.2 µM [cytotoxic, partial curve, poor fit] | –
CC1(C)C(C(=O)O)N2C(=O)C(NC(=O)Cc3ccccc3)C2S1=O (stereo unspecified) | inconclusive: 25.9 µM [rising, single point] | –
COc1ccc(OC)c(C2NC(=O)N(C)C(C)=C2C(=O)OCc2ccccc2)c1 (stereo unspecified) | – | inactive: 4.24%
CC(C)(C)NC(=O)NC(=O)CN1CCN(C(c2ccccc2)c2ccccc2)CC1 | active: 20.6 µM | –
COc1ccc2c(C(=O)CCl)c[nH]c2c1 | – | inactive: 0%
COc1ccc(OC(C)C(=O)NCc2nc(-c3ccc(Cl)cc3)no2)cc1 (stereo unspecified) | inconclusive: 16.4 µM [cytotoxic, single point] | –
O=C(O)c1ccc(N2C(=O)CC(N3C(=O)/C(=C/c4ccc(Cl)cc4)SC3=S)C2=O)cc1 (stereo unspecified) | – | inactive: 3.87%
Cc1ccccc1Cn1c(C)c(C(=O)NCc2cccc(Cl)c2)sc1=O | inconclusive: 9.2 µM [cytotoxic, partial curve] | –
CSc1cccc(CN2CCN(Cc3ccc(F)c(F)c3)C(CCO)C2)c1 (stereo unspecified) | – | inactive: -18.9%
O=C(N/N=C1/C(=O)c2cccc3cccc1c23)c1ccc(Cl)cc1 | inconclusive: 25.9 µM [cytotoxic, single point] | –
CCCCn1nc(NC(=O)CCC)c2cc3cc(OC)ccc3nc21 | inconclusive: 13 µM [cytotoxic, partial curve, poor fit] | –
CC(C)(C)c1ccc2c(c1)OC(C(=O)N/N=C\c1ccccn1)CO2 (stereo unspecified) | inconclusive: 29.1 µM [cytotoxic, single point] | –
O=C(Nc1ccc(F)cc1)c1cccc(N2C(=O)C3C4CCC(C4)C3C2=O)c1 (stereo unspecified) | active: 10.3 µM | –
COc1ccc(N2CC(C(=O)NC3=NCCS3)CC2=O)cc1 (stereo unspecified) | – | inactive: -13.2%
CN(c1ccccc1)S(=O)(=O)c1cccc(C(=O)Nc2nccs2)c1 | – | inconclusive: -28.7%

Among those listed so far, these contain fluorine.
SMILES | Potency | activity change, negative = cytotoxicity
CSc1cccc(CN2CCN(Cc3ccc(F)c(F)c3)C(CCO)C2)c1 (stereo unspecified) | – | inactive: -18.9%
O=C(Nc1ccc(F)cc1)c1cccc(N2C(=O)C3C4CCC(C4)C3C2=O)c1 (stereo unspecified) | active: 10.3 µM | –

(listing goes on)

SMILES | Potency | activity change, negative = cytotoxicity
COc1ccccc1N1CCN(CC(=O)Nc2ccc(Cl)c(C(F)(F)F)c2)CC1 | inconclusive: 29.1 µM [cytotoxic, single point] | –
Cc1cc2n(n1)C(c1ccc(N(C)C)cc1)Nc1ccccc1-2 (stereo unspecified) | inconclusive: 18.4 µM [cytotoxic, single point] | –
Cc1ccc(C)c(N(CC(=O)NC2CCCC2)C(=O)CCC(=O)Nc2cc(C)on2)c1 | inconclusive: 18.4 µM [cytotoxic, single point] | –
CC(C)C1CC(CCN)(Cc2ccccc2)CCO1 (stereo unspecified) | inconclusive: 29.1 µM [cytotoxic, single point] | –
CC(C)Sc1ncc(Cl)c(C(=O)Nc2ccc(S(=O)(=O)N3CCCCC3C)cc2)n1 (stereo unspecified) | – | inactive: -8.99%
NS(=O)(=O)c1ccc(NC(=O)c2ccc(S(=O)(=O)N3CCc4ccccc43)cc2)cc1 | inconclusive: 13 µM [rising, partial curve, poor fit] | –
CSc1ccccc1NC(=O)CN(C)C(C)C(=O)Nc1ccc(C#N)cc1 (stereo unspecified) | inconclusive: 8.2 µM [cytotoxic, partial curve] | –
O=C(c1sc2cccc(Cl)c2c1Cl)N1CCN(CCc2ccccn2)CC1 | inconclusive: 3.26 µM [cytotoxic, partial curve, poor fit] | –
O=C(NC(c1ccccc1)c1ccsc1)C1CCN(Cc2ccc(Cl)c(Cl)c2)CC1 (stereo unspecified) | – | inactive: 1.31%
C[C@@H]1CN([C@@H](C)CO)S(=O)(=O)c2ccc(Br)cc2O[C@H]1CN(C)C(=O)c1ccc2c(c1)OCO2 | – | inactive: -1.86%
CCN1CCN(C(c2cccs2)C(C)NC(=O)c2cccnc2)CC1 (stereo unspecified) | – | inactive: -5.04%
NC(=O)c1ccccc1NC(=O)/C=C/C(=O)O | – | inactive: 9.97%
Cc1cc(C)c(S(=O)(=O)N(C)CC(=O)NCc2ccncc2)c(C)c1 | – | inactive: -32.4%
CCCc1nc(SCC(=O)Nc2ccc(N3CCOCC3)cc2)c2ccccc2n1 | – | inactive: -29.9%
CCC(=O)c1ccccc1OCCCN1C(=O)NC(C)(C)C1=O | inconclusive: 13 µM [cytotoxic, partial curve] | –
O=C(O)c1ccccc1C(=O)c1ccc(N2CCCC2)c([N+](=O)[O-])c1 | – | inactive: 11.3%
Cn1c(=O)[nH]c(=O)c2c1nc(Br)n2Cc1cccc(Br)c1 | inconclusive: 23.1 µM [cytotoxic, single point] | –
O=C(Cc1ccc(-c2ccccc2)cc1)NNC(=S)NCc1ccco1 | active: 8.2 µM | –
CC1CCN(S(=O)(=O)c2ccccc2[N+](=O)[O-])CC1 | inconclusive: 20.6 µM [cytotoxic, single point] | –
COc1cc([N+](=O)[O-])ccc1NC(=O)CSc1nncn1-c1cccnc1 | inconclusive: 16.4 µM [cytotoxic, partial curve] | –
O=C(NC(=S)NCC1CCCO1)c1ccc(Cl)cc1 (stereo unspecified) | inconclusive: 18.4 µM [cytotoxic, single point] | –
O=[N+]([O-])c1ccc(S(=O)(=O)Nc2nc3ccccc3nc2Nc2ccccc2)cc1 | active: 5.17 µM | –
Oc1ccccc1C(=S)N1CCN(C(=S)c2ccccc2O)CC1 | – | inactive: 0%
